The exact form of at least one protein or probe is not confirmed. Results from cells or extracts need not show a direct contact. For part of these data: A negative result means that nothing was seen under these conditions. For part of these data: At least one verdict rests on a figure or table, not on a statement of the authors.
What was measured:
[1] = tested on: aryl hydrocarbon receptor (AhR), presumed AhR:ARNT complex; assay: EMSA; details: nuclear extract of DIMBOA-treated cells; EMSA: LightShift kit, 20 uL, 20 fmol biotinylated probe, 3.5-4 ug nuclear protein, 30 min room temperature, 5% TBE gel in 0.5X TBE; protein in an extract; label: biotin
[2] = tested on: aryl hydrocarbon receptor (AhR), presumed AhR:ARNT complex; assay: pull-down; details: streptavidin agarose, proteomic detection of AhR, poly dI.dC; pull-down: PBS, 1 mM EDTA, 1 mM DTT, 4 ug poly dI.dC, protease inhibitor, room temperature; protein in an extract; label: biotin

Sequence	binding result [1]	binding result [2]
TACGCGTGTTATTGAACTTC (double strand) [SfUGT33F28 canonical DNA probe 1 (wt)]	binds	binds
TATTATTGAACTTCAAAACATAC (double strand) [SfUGT33F28 mutant DNA probe 2 (delta ahr/arnt)]	no binding	
